Measured values published in the supplement of paper PMC7661543.
± gives the standard deviation of the averaged measurements. Differences between knockout arms are mostly noise.

System: MDA-MB-231
Assay: relative cell number vs DMSO control (72 h) (% of DMSO); higher = less growth inhibition (more cells)
Protocol: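 QMAP-Seq: a pool of 5 breast cancer cell lines (ZR-75-1, SKBR3, HCC-38, MDA-MB-231, BT-20), each carrying 12 doxycycline-inducible Cas9 sgRNA perturbations (11 knockouts plus non-targeting sgNT), was treated with compounds for 72 h at four 10-fold doses (10 nM-10 uM or 1 nM-1 uM range). Barcodes were amplified and sequenced, and cell number was interpolated from 293T spike-in standard curves. The result is expressed as % of the median of DMSO wells. Two biological replicates.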

[1] = sgRNA knockout: sgATF3, 1000 nM
[2] = sgRNA knockout: sgATF3, 10000 nM
[3] = sgRNA knockout: sgATF4, 1000 nM
[4] = sgRNA knockout: sgATF4, 10000 nM
[5] = sgRNA knockout: sgATF6, 1000 nM
[6] = sgRNA knockout: sgATF6, 10000 nM
[7] = sgRNA knockout: sgATG7, 1000 nM
[8] = sgRNA knockout: sgATG7, 10000 nM
[9] = sgRNA knockout: sgERN1, 1000 nM
[10] = sgRNA knockout: sgERN1, 10000 nM
[11] = sgRNA knockout: sgHSF1, 1000 nM
[12] = sgRNA knockout: sgHSF1, 10000 nM
[13] = sgRNA knockout: sgHSF2, 1000 nM
[14] = sgRNA knockout: sgHSF2, 10000 nM
[15] = sgRNA knockout: sgKEAP1, 100 nM
[16] = sgRNA knockout: sgKEAP1, 1000 nM
[17] = sgRNA knockout: sgKEAP1, 10000 nM
[18] = sgRNA knockout: sgNFE2L2, 10 nM
[19] = sgRNA knockout: sgNFE2L2, 100 nM
[20] = sgRNA knockout: sgNFE2L2, 1000 nM
[21] = sgRNA knockout: sgNFE2L2, 10000 nM
[22] = sgRNA knockout: sgSLC35F2, 10 nM
[23] = sgRNA knockout: sgSLC35F2, 100 nM
[24] = sgRNA knockout: sgSLC35F2, 1000 nM
[25] = sgRNA knockout: sgSLC35F2, 10000 nM
[26] = sgRNA knockout: sgXBP1, 1000 nM
[27] = sgRNA knockout: sgXBP1, 10000 nM

Compound `C[C@]1(O)C[C@@H](c2nc(-c3ccc4ccc(-c5ccccc5)nc4c3)c3c(N)nccn32)C1` [Linsitinib] has a relative cell number (sgRNA knockout: sgATF3, 10 nM) of 106 ± 13, a relative cell number (sgRNA knockout: sgATF3, 100 nM) of 122 ± 25 and a relative cell number [1] of 84 ± 2.3. It also gave a relative cell number [2] of 68.3 ± 2.5, a relative cell number (sgRNA knockout: sgATF4, 10 nM) of 114 ± 20 and a relative cell number (sgRNA knockout: sgATF4, 100 nM) of 146 ± 22. It also gave a relative cell number [3] of 93.9 ± 26, a relative cell number [4] of 68.3 ± 25 and a relative cell number (sgRNA knockout: sgATF6, 10 nM) of 99.9 ± 8. For the same compound, the relative cell number (sgRNA knockout: sgATF6, 100 nM) was 91 ± 34, the relative cell number [5] was 79.8 ± 3.5 and the relative cell number [6] was 54.1 ± 4.2. It also gave a relative cell number (sgRNA knockout: sgATG7, 10 nM) of 102 ± 20, a relative cell number (sgRNA knockout: sgATG7, 100 nM) of 99 ± 5 and a relative cell number [7] of 83.5 ± 11. It also gave a relative cell number [8] of 63.3 ± 4.8, a relative cell number (sgRNA knockout: sgERN1, 10 nM) of 89.1 ± 19 and a relative cell number (sgRNA knockout: sgERN1, 100 nM) of 117 ± 2.4. For the same compound, the relative cell number [9] was 75.5 ± 13, the relative cell number [10] was 65.8 ± 13 and the relative cell number (sgRNA knockout: sgHSF1, 10 nM) was 105 ± 32. It also gave a relative cell number (sgRNA knockout: sgHSF1, 100 nM) of 132.8 ± 0.53, a relative cell number [11] of 74.6 ± 0.75 and a relative cell number [12] of 59.7 ± 15. The relative cell number (sgRNA knockout: sgHSF2, 10 nM) was 104 ± 17, the relative cell number (sgRNA knockout: sgHSF2, 100 nM) was 103 ± 18 and the relative cell number [13] was 89.5 ± 2.2. For the same compound, the relative cell number [14] was 73.8 ± 10, the relative cell number (sgRNA knockout: sgKEAP1, 10 nM) was 101 ± 13 and the relative cell number [15] was 90.6 ± 5.3. It also gave a relative cell number [16] of 76 ± 8.8, a relative cell number [17] of 78.4 ± 13 and a relative cell number [18] of 115 ± 14. It also gave a relative cell number [19] of 103 ± 12, a relative cell number [20] of 72.2 ± 26 and a relative cell number [21] of 76.3 ± 11. The relative cell number [22] was 92.5 ± 2.1, the relative cell number [23] was 89.7 ± 18 and the relative cell number [24] was 89.2 ± 3.6. The relative cell number [25] was 52.1 ± 15, the relative cell number (sgRNA knockout: sgXBP1, 10 nM) was 101 ± 7 and the relative cell number (sgRNA knockout: sgXBP1, 100 nM) was 97 ± 25. The relative cell number [26] was 88.3 ± 22 and the relative cell number [27] was 56.9 ± 1.

`Cc1cnc(-c2cnc(NCCNc3ccc(C#N)cn3)nc2-c2ccc(Cl)cc2Cl)[nH]1` showed a relative cell number (sgRNA knockout: sgATF3, 10 nM) of 96.8 ± 9.5, a relative cell number (sgRNA knockout: sgATF3, 100 nM) of 90.8 ± 3.9 and a relative cell number [1] of 57.2 ± 4.4. For the same compound, the relative cell number [2] was 47.2 ± 17, the relative cell number (sgRNA knockout: sgATF4, 10 nM) was 109 ± 30 and the relative cell number (sgRNA knockout: sgATF4, 100 nM) was 103 ± 26. The relative cell number [3] was 104 ± 14, the relative cell number [4] was 67.3 ± 4.3 and the relative cell number (sgRNA knockout: sgATF6, 10 nM) was 80.8 ± 47. The relative cell number (sgRNA knockout: sgATF6, 100 nM) was 97.7 ± 4.5, the relative cell number [5] was 67.7 ± 11 and the relative cell number [6] was 62.8 ± 9.7. For the same compound, the relative cell number (sgRNA knockout: sgATG7, 10 nM) was 98 ± 4.8, the relative cell number (sgRNA knockout: sgATG7, 100 nM) was 81.9 ± 7.8 and the relative cell number [7] was 96.3 ± 6. For the same compound, the relative cell number [8] was 69.2 ± 4.3, the relative cell number (sgRNA knockout: sgERN1, 10 nM) was 103 ± 4.4 and the relative cell number (sgRNA knockout: sgERN1, 100 nM) was 89.9 ± 24. The relative cell number [9] was 78.7 ± 2.2, the relative cell number [10] was 64.7 ± 14 and the relative cell number (sgRNA knockout: sgHSF1, 10 nM) was 98.1 ± 5.7. It also gave a relative cell number (sgRNA knockout: sgHSF1, 100 nM) of 90.9 ± 22, a relative cell number [11] of 78.8 ± 11 and a relative cell number [12] of 49.5 ± 0.59. The relative cell number (sgRNA knockout: sgHSF2, 10 nM) was 108 ± 22, the relative cell number (sgRNA knockout: sgHSF2, 100 nM) was 101 ± 2.4 and the relative cell number [13] was 78.5 ± 30. For the same compound, the relative cell number [14] was 67.33 ± 0.17, the relative cell number (sgRNA knockout: sgKEAP1, 10 nM) was 98.8 ± 37 and the relative cell number [15] was 92.9 ± 1.8. It also gave a relative cell number [16] of 92.3 ± 17, a relative cell number [17] of 44.7 ± 3 and a relative cell number [18] of 89.9 ± 19. For the same compound, the relative cell number [19] was 86.1 ± 4, the relative cell number [20] was 83.5 ± 27 and the relative cell number [21] was 57 ± 9.3. It also gave a relative cell number [22] of 87.9 ± 38, a relative cell number [23] of 94.8 ± 14 and a relative cell number [24] of 71.8 ± 3. The relative cell number [25] was 51.3 ± 2.6, the relative cell number (sgRNA knockout: sgXBP1, 10 nM) was 87.4 ± 1.3 and the relative cell number (sgRNA knockout: sgXBP1, 100 nM) was 98.2 ± 17. For the same compound, the relative cell number [26] was 80.7 ± 11 and the relative cell number [27] was 59 ± 7.6.
